The other results are listed elsewhere or left out.
B1: il10ra_site1_sap_17_mot_HEEHE_1605_000000211_0001_40_56_H_._9e622f7d73aa0ff91040b48e8c7f7504_0001_1_af2_0001_0000600013_0000002_0_0001 (protein)
chain: SSSSSDANHEALELVLEAMHAMLRGDREEAERLLEEALELAREGNNERLAKQIEILLENASSSSS
B2: il10ra_site1_normal_mot_HHH_b1_05326_000000242_0001_1_20_H_._HHH_b1_03875_0001_0000500011_0000001_0 (protein)
chain: SSSSSSLEEALELAQHAFRALLRGNPEEARELLEEALELAREENNERLVRVIEDALKIASSSSSS
B3: il10ra_site1_sap_24_mot_HHH_b2_04679_000000194_0001_21_38_H_._HHH_b2_08140_0001_0000300042_0000001_0_0001 (protein)
chain: SSSSSVEELEKKVEELIEKVPDPAARWLAEQALKAARLALERGDEELAERALRMAERVLNSSSSS
B4: il10ra_site1_sap_25_mot_HHH_b2_03434_000000017_0001_1_19_H_._HHH_b2_05932_af2_0001_0000100002_0000001_0_0001 (protein)
chain: SSSSDEETQRVFELIREAVELDLDGDPEEAEKVLEEARELAEEAGNELFLRQVEWLLELLRSSSS
B5: il10ra_site1_normal_mot_HHH_b1_00682_000000211_0001_1_20_H_._HHH_b2_01840_0001_0000500065_0000002_0 (protein)
chain: SSSSDVEERVEELLEQARELLEKGNPDEAYKLLREAVELASERNDPELQRLVMKVSRELFSSSSS
B6: il10ra_site1_normal_mot_HHH_b1_02062_000000185_0001_1_20_H_._HHH_b1_08541_0001_0000100004_0000001_0 (protein)
chain: SSSSSEERRRAYELSREISELDSEGDEEEAKKLLEELEKLVEELGSELLKFIVKLLEEQLHSSSS
B7: il10ra_site1_normal_mot_HHH_b1_06994_000000193_0001_40_55_H_._HHH_b1_06132_0001_0000300033_0000001_0 (protein)
chain: SSSSSEEEELLRAVLRLAQQAIEAGNPEAARFLLLSAEILAREVGDEELLEEVERLLEELSSSSS
B8: il10ra_site1_normal_mot_65b8060e20531850bca9f2e11f97d954_0001_af2_000000137_0001_17_31_H_._HHH_b1_06583_0001_0000300016_0000001_0_af2pred_0001 (protein)
chain: SSSSSEERRRALELILRIAKLLLRGDKEEAEELLEELEELAEKLNDPRLRLSLRALESSLKSSSS
B9: il10ra_site1_normal_mot_8756ee2cf497b5429c717dfc0c0bcfd6_0001_000000186_0001_1_13_H_._HHH_b1_07469_0001_0000200008_0000001_0 (protein)
chain: SSSDEIEEIQELIRRAAELLHEGNPEEAEELLRRAEELAREANNDVLLFQVEYLLRLAEEDSSSS
B10: il10ra_site1_sap_19_mot_HHH_b1_08508_000000230_0001_42_56_H_._HHH_b1_06584_0001_0000100001_0000001_0_0001_af2pred_0001 (protein)
chain: SSSSDEEKREVAYLLVRAYAAAAQGDEEAVEELLEEARRVAEEGNDPRLEEVVEIVAKLLLSSSS
B11: il10ra_site1_sap_20_mot_HHH_b1_02062_000000185_0001_1_20_H_._HHH_b1_05367_0001_0000200009_0000001_0_0001 (protein)
chain: SSSSSSDLEELLEELEQLLEEGDRERFAKVALEILRLAFQLSDPEVLRAVWELIRKLASSSSSSS
B12: il10ra_site1_normal_mot_HHH_b2_03568_000000058_0001_1_19_H_._HHH_b1_01244_0001_0000200011_0000001_0 (protein)
chain: SSSSSDEAYKLARRAIEEASEIFKRDPEKAREILEEAREEAEELNNFAVVFALEHLLRALSSSSS
B13: il10ra_site1_sap_13_mot_HHH_b2_05084_af2_000000250_0001_43_57_H_._c839b00de2d74b58ead539899b931618_0001_af2_0001_0000200015_0000001_0_0001_af2pred_0001 (protein)
chain: SSSSSDERRRVLELIRELLELLKEGDEEEAERVFEEAEELAKEANDPSAEKLLRALFEKGSSSSS
B14: il10ra_site1_normal_mot_HHH_b1_06914_000000280_0001_1_18_H_._HHH_b1_02694_0001_0000200011_0000001_0 (protein)
chain: SSSSTEEDHELYRLSREAAELFAEGDPEQAEEVLEEALRLAEEAGNFVALFALRLLLRDLRSSSS
B15: il10ra_site1_normal_mot_HHH_b1_00999_000000080_0001_41_55_H_._HHH_b2_02400_0001_0000200004_0000001_1 (protein)
chain: SSSSSDEEEEEVEELLEEAKQIPDPRELNRVLLEALRVAFEGQDPELLRLVWEVVKKLGSSSSSS
B16: il10ra_site1_sap_21_mot_HHH_b1_04828_000000265_0001_23_38_H_._HHH_b1_04671_0001_0000100004_0000001_0_0001 (protein)
chain: SSSSEEERVEELLEEAKELIEEGDPEKASKVLLEATHLAIQSQDPELLRLVWEVVKEVAEHSSSS
B17: il10ra_site1_normal_mot_HHH_b2_08186_000000021_0001_43_56_H_._HHH_b2_00645_0001_0000300025_0000002_0 (protein)
chain: SSSSSSDTREEVEELLEEAEEIDDPEERFRLLLRALRLAFEAGDQEALQLVWEVLKEISSSSSSS
B18: il10ra_site1_sap_22_mot_HHH_b2_03220_af2_000000223_0001_23_40_H_._HHH_b1_01542_0001_0000500044_0000001_0_0001_af2pred_0001 (protein)
chain: SSSSSEEEVEELERRIEELLEEGNRHEAAALILRLFALAHELRDPEVEEEARRLAQLAANSSSSS

Each binder was assayed against il10ra, Q13651 (assay: yeast display titration).

Row | Binder | apparent Kd
1 | B1 | inactive: no binding seen
2 | B2 | inactive: no binding seen
3 | B3 | inactive: no binding seen
4 | B4 | inactive: no binding seen
5 | B5 | inactive: no binding seen
6 | B6 | inactive: no binding seen
7 | B7 | inactive: no binding seen
8 | B8 | inactive: no binding seen
9 | B9 | inactive: no binding seen
10 | B10 | inactive: no binding seen
11 | B11 | inactive: no binding seen
12 | B12 | inactive: no binding seen
13 | B13 | inactive: no binding seen
14 | B14 | inactive: no binding seen
15 | B15 | inactive: no binding seen
16 | B16 | inactive: no binding seen
17 | B17 | inactive: no binding seen
18 | B18 | inactive: no binding seen

Looked up one by one from the list above:
Row | Binder | apparent Kd
1 | B1 | inactive: no binding seen
7 | B7 | inactive: no binding seen

From PMC10163288
